The test addresses T1, MBP-Atg19 (Saccharomyces cerevisiae Atg19 with N-terminal MBP) (S. cerevisiae), P35193.
T1 chain: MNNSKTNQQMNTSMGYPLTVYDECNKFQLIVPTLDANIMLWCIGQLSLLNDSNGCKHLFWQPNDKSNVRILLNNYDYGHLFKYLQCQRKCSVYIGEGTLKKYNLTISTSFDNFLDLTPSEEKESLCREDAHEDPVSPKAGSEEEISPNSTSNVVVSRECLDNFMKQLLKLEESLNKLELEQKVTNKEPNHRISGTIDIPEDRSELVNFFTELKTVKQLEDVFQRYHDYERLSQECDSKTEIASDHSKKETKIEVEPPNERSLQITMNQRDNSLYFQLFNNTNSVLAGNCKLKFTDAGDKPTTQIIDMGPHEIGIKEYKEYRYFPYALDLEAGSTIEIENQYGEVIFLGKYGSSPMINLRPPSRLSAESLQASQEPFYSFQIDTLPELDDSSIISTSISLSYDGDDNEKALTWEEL
The experiment in a line: pull-down; purified MBP-Atg19 or MBP (1 uM) mixed with his-Ams1 (1 uM), mApe1 (1 uM) or prApe1 (0.7 uM) overnight at 4 C in 50 mM Tris-HCl pH 7.5, 25 mM NaCl, 5 mM MgCl2, 1 mM DTT, 0.2% NP-40; captured on amylose beads; SDS-PAGE, Coomassie; both purified. The settings on record: remark: other sources report otherwise.

This passage reports binding results from article PMC4931565, “Higher‐order assemblies of oligomeric cargo receptor complexes form the membrane scaffold of the Cvt vesicle” (EMBO Reports, 2016).

These are yes or no findings as the source states them, for the method shown. Tags and fused reporters may be left off the sequences shown.

B1: Saccharomyces cerevisiae mApe1 (mature Ape1 lacking the N-terminal propeptide), P14904 46-514 (natural protein)
chain: EHNYEDIAQEFIDFIYKNPTTYHVVSFFAELLDKHNFKYLSEKSNWQDSIGEDGGKFYTIRNGTNLSAFILGKNWRAEKGVGVIGSHVDALTVKLKPVSFKDTAEGYGRIAVAPYGGTLNELWLDRDLGIGGRLLYKKKGTNEIKSALVDSTPLPVCRIPSLAPHFGKPAEGPFDKEDQTIPVIGFPTPDEEGNEPPTDDEKKSPLFGKHCIHLLRYVAKLAGVEVSELIQMDLDLFDVQKGTIGGIGKHFLFAPRLDDRLCSFAAMIALICYAKDVNTEESDLFSTVTLYDNEEIGSLTRQGAKGGLLESVVERSSSAFTKKPVDLHTVWANSIILSADVNHLYNPNFPEVYLKNHFPVPNVGITLSLDPNGHMATDVVGTALVEELARRNGDKVQYFQIKNNSRSGGTIGPSLASQTGARTIDLGIAQLSMHSIRAATGSKDVGLGVKFFNGFFKHWRSVYDEFGEL
As for B1, the binding result is reported as “no binding (tested: 1 uM each)”.
